PubChem BioAssay AID686943, Drosophila RNAi Screening Center, 2013

Assay: 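Fly genes whose loss alters ERK activation after insulin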 (primary screen)
Cell system: Drosophila S2R+ haemocyte-like cells expressing YFP-tagged ERK (Rolled)
Reagent: long dsRNA against Drosophila genes
Conditions: insulin stimulation versus unstimulated cells; dose and duration not given
Measurement: 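Per-plate z-scores of phospho-ERK immunostaining normalised to YFP-tagged ERK, measured with and without insulin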
Direction: replicate 1, z-score of dpERK with insulin: higher = more active ERK per ERK-YFP after insulin
The deposit covers about 23,000 reagents; shown is an unselected part of those that have a named target and a result. 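Extra replicates exist only for a retested subset of genes; insulin dose and duration not given; both raised and lowered dpERK matter.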 A plus sign joins genes that one reagent is predicted to hit. Further read-outs or replicates are left out here. The record does not give: the amount of reagent, the time to read-out.

Knock-down of CBP (GeneID 31669) [DRSC17746] came out at: replicate 1, z-score of dpERK with insulin 1.17.
Cap-D3 (GeneID 33778) [DRSC02349] scored replicate 1, z-score of dpERK with insulin -0.14.
After knock-down of loj (GeneID 38698) [DRSC09791] the results were replicate 1, z-score of dpERK with insulin -0.73.
For stwl (GeneID 39581) [DRSC11400] the deposit lists replicate 1, z-score of dpERK with insulin 0.25.
With knock-down of CG34007 (GeneID 3885610) [DRSC01790], the record shows replicate 1, z-score of dpERK with insulin -0.36.
With knock-down of MsR1 (GeneID 38298) [DRSC08615], the record shows replicate 1, z-score of dpERK with insulin 0.37.
After knock-down of PPYR1 (GeneID 32453) [DRSC19612], the record shows replicate 1, z-score of dpERK with insulin -0.82.

2 of these entries, reformatted.
gene knocked down | DRSC id | replicate 1, z-score of dpERK with insulin
loj (GeneID 38698) | DRSC09791 | -0.73
stwl (GeneID 39581) | DRSC11400 | 0.25

Further reagents follow:
CG31882 (GeneID 319000) [DRSC01084] scored replicate 1, z-score of dpERK with insulin 0.63.
For CG8617 (GeneID 36594) [DRSC07223] the deposit lists replicate 1, z-score of dpERK with insulin -0.84.
Nsun2 (GeneID 45064) [DRSC18662] showed replicate 1, z-score of dpERK with insulin 1.28.
With knock-down of SmD2 (GeneID 40781) [DRSC12536] the results were replicate 1, z-score of dpERK with insulin 0.87.
With knock-down of CG14711 + Zaf1 [DRSC14934] the results were replicate 1, z-score of dpERK with insulin 1.88.
